# Experimental data: article PMC7397750, “Angiopoietin-like protein 8 differentially regulates ANGPTL3 and ANGPTL4 during postprandial partitioning of fatty acids[S]” (Journal of Lipid Research, 2020)
# No constants are given. Whether binding was seen depends on the method and setting. For some assays here: Binding seen in cells or lysates may run through a third protein. Some entries that bind do so weakly or less than the wild type.
# T1: ANGPTL8 (angiopoietin-like protein 8), endogenous in human serum (human (endogenous in serum)) (UniProt Q6UXH0)
# T1 sequence: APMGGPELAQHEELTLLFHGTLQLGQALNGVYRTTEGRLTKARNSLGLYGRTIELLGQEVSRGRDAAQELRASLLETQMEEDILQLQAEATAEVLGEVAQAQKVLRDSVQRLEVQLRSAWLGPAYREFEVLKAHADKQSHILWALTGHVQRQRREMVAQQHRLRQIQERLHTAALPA
# Tests used:
# [1] = molecular target: T1, ANGPTL8 (angiopoietin-like protein 8), endogenous in human serum (human (endogenous in serum)); experiment: co-IP; anti-ANGPTL8, anti-ANGPTL4 (N-terminal) and anti-ANGPTL3 antibodies covalently coupled to tosyl-activated beads; pooled human donor serum diluted 1:2 with PBS, 4°C overnight; Western blot with biotinylated anti-ANGPTL antibodies
# [2] = molecular target: T1, ANGPTL8 (angiopoietin-like protein 8), endogenous in human serum (human (endogenous in serum)); experiment: ELISA; MSD electrochemiluminescence sandwich immunoassays on human serum: ANGPTL3/8 assay with capture antibody to ANGPTL8 and detection antibody to ANGPTL3; ANGPTL4/8 assay with capture antibody to ANGPTL4 and detection antibody to ANGPTL8; assay buffer 50 mmol/l HEPES pH 7.40, 150 mmol/l NaCl, Triton X-100, EDTA, EGTA; RT
binder,measurement,setting,value
"ANGPTL4 (angiopoietin-like protein 4), endogenous in human serum, N-terminally intact (natural protein, human (endogenous in serum), UniProt Q9BY76-1 26-406, looked up, ANGPTL4, human, circulating protein of donor serum precipitated or captured with an N-terminal ANGPTL4 antibody; Full-length or N-terminal fragment; also called active ANGPTL4; source: endogenous, human serum) GPVQSKSPRFASWDEMNVLAHGLLQLGQGLREHAERTRSQLSALERRLSACGSACQGTEGSTDLPLAPESRVDPEVLHSLQTQLKAQNSRIQQLFHKVAQQQRHLEKQHLRIQHLQSQFGLLDHKHLDHEVAKPARRKRLPEMAQPVDPAHNVSRLHRLPRDCQELFQVGERQSGLFEIQPQGSPPFLVNCKMTSDGGWTVIQRRHDGSVDFNRPWEAYKAGFGDPHGEFWLGLEKVHSITGDRNSRLAVQLRDWDGNAELLQFSVHLGGEDTAYSLQLTAPVAGQLGATTVPPSGLSVPFSTWDQDHDLRRDKNCAKSLSGGWWFGTCSHSNLNGQYFRSIPQQRQKLKKGIFWKTWRGRYYPLQATTMLIQPMAAEAAS",binding,[1],binds
same,binding,[2],binds
